Results taken from patent US10717734B2, “Indole and azaindole haloallylamine derivative inhibitors of lysyl oxidases and uses thereof” (PHARMAXIS LTD., priority 2016, dated 2020).
Counter-ions that a name gives are not always drawn. For at least one compound, name, drawing or mass did not settle the structure.

Tested on: streptozotocin and high fat diet induced liver fibrosis
Assay: Streptozotocin and high fat diet induced liver fibrosis (STAM model)
Assay type: in vivo, mouse
Conditions: mice, daily oral gavage 10-30 mg/kg from 8 weeks after streptozotocin

## CC(C)c1c(Cc2ccc(S(C)(=O)=O)nc2)c2ncccc2n1C/C(F)=C/CN [Compound 22, trihydrochloride]
  fibrosis in mouse model of streptozotocin and high fat diet induced liver fibrosis (picro-Sirius red area): reduce fibrosis
